Reference: PubChem BioAssay AID1259405 (NCATS, 2018)
Assay: 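Mouse-designed siRNAs used to find CHO productivity engineering targets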 (primary screen). System: Chinese hamster CHO-K1 ovary cells with stable secreted eGFP expression. Reagents: single siRNA against mouse genes, 0.8 pmol siRNA per well (2 µl of 400 nM stock). Timing: 3 days. Read-out: 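Per-well intracellular GFP measured by laser scanning cytometry, plus viability from ATP luminescence, each relative to plate median of non-targeting control wells, in %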. Direction: GFP, % of control: higher = more GFP per well, higher productivity; viability (ATP), % of control: higher = more viable cells (more ATP). Active means: 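a knock-down is called active if GFP reaches 120% or more of non-targeting control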.
The whole screen tested about 50,000 reagents; this is a random part of them. About 4,000 of them (8%) were called active. 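Mouse siRNA library applied to hamster cells; one well for each siRNA.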 Reagents against one gene are numbered here.

Gene,reagent,"GFP, % of control","viability (ATP), % of control",activity call
Stxbp6 (syntaxin binding protein 6 (amisyn)),1,70.9,88.3,inactive
Stxbp6 (syntaxin binding protein 6 (amisyn)),2,58.2,69.9,inactive
Stxbp6 (syntaxin binding protein 6 (amisyn)),3,41.5,35.7,inactive
Nthl1 (nth (endonuclease III)-like 1 (E.coli)),1,105,110,inactive
Nthl1 (nth (endonuclease III)-like 1 (E.coli)),2,123,103,active
Nthl1 (nth (endonuclease III)-like 1 (E.coli)),3,50.1,83.1,inactive
Cenpk (centromere protein K),1,79.5,88,inactive
Cenpk (centromere protein K),2,62,93.9,inactive
Cenpk (centromere protein K),3,61.2,66.7,inactive
Mettl25 (methyltransferase like 25),1,50.3,75,inactive
Mettl25 (methyltransferase like 25),2,73.6,102,inactive
Mettl25 (methyltransferase like 25),3,101,114,inactive
Slamf1 (signaling lymphocytic activation molecule family member 1),1,83.2,51.7,inactive
Slamf1 (signaling lymphocytic activation molecule family member 1),2,47.9,36.8,inactive
Slamf1 (signaling lymphocytic activation molecule family member 1),3,79.1,65.4,inactive
Tmem174 (transmembrane protein 174),1,75,127,inactive
Tmem174 (transmembrane protein 174),2,140,61.3,active
Tmem174 (transmembrane protein 174),3,77.5,80.7,inactive
Tpsb2 (tryptase beta 2),1,64,71.7,inactive
Tpsb2 (tryptase beta 2),2,76,73.8,inactive
Tpsb2 (tryptase beta 2),3,89.3,77.9,inactive
Dusp15 (dual specificity phosphatase-like 15),1,74.8,86,inactive
Dusp15 (dual specificity phosphatase-like 15),2,107,113,inactive
Dusp15 (dual specificity phosphatase-like 15),3,106,63.2,inactive
Tle3 (transducin-like enhancer of split 3),1,86.1,80.1,inactive
Tle3 (transducin-like enhancer of split 3),2,111,86.6,inactive
Tle3 (transducin-like enhancer of split 3),3,78.2,85.9,inactive
Ankrd42 (ankyrin repeat domain 42),1,177,93.4,active
Ankrd42 (ankyrin repeat domain 42),2,66.1,82.1,inactive
Ankrd42 (ankyrin repeat domain 42),3,131,140,active
Ripply3 (ripply transcriptional repressor 3),1,52.3,61.9,inactive
Ripply3 (ripply transcriptional repressor 3),2,74.8,80.5,inactive
Ripply3 (ripply transcriptional repressor 3),3,57.4,83.5,inactive
Sgcz (sarcoglycan zeta),1,70.9,88.6,inactive
Sgcz (sarcoglycan zeta),2,76,73.3,inactive
Sgcz (sarcoglycan zeta),3,65.8,69.5,inactive
Gml2 (glycosylphosphatidylinositol anchored molecule like 2),1,89.9,88.5,inactive
Gml2 (glycosylphosphatidylinositol anchored molecule like 2),2,86.7,71.1,inactive
Gml2 (glycosylphosphatidylinositol anchored molecule like 2),3,94.2,72.4,inactive
Nipal2 (NIPA-like domain containing 2),1,72.3,65.5,inactive
Nipal2 (NIPA-like domain containing 2),2,53.9,71.7,inactive
Nipal2 (NIPA-like domain containing 2),3,106,88.6,inactive
Or10ag54 (olfactory receptor family 10 subfamily AG member 54),1,160,59.3,active
Or10ag54 (olfactory receptor family 10 subfamily AG member 54),2,89.9,89.6,inactive
Or10ag54 (olfactory receptor family 10 subfamily AG member 54),3,127,80.7,active
Or10ag54 (olfactory receptor family 10 subfamily AG member 54),4,127,80.7,active
Or10ag54 (olfactory receptor family 10 subfamily AG member 54),5,103,88.7,inactive
Or10ag54 (olfactory receptor family 10 subfamily AG member 54),6,96.4,95.1,inactive
Gak (cyclin G associated kinase),1,82.4,30.7,inactive
Gak (cyclin G associated kinase),2,102,93.3,inactive
Gak (cyclin G associated kinase),3,87.1,114,inactive
Lrrc26 (leucine rich repeat containing 26),1,79.3,58.1,inactive
Lrrc26 (leucine rich repeat containing 26),2,69.6,54.9,inactive
Lrrc26 (leucine rich repeat containing 26),3,62.3,71.9,inactive
"St8sia4 (ST8 alpha-N-acetyl-neuraminide alpha-2,8-sialyltransferase 4)",1,50,45.1,inactive
"St8sia4 (ST8 alpha-N-acetyl-neuraminide alpha-2,8-sialyltransferase 4)",2,112,125,inactive
"St8sia4 (ST8 alpha-N-acetyl-neuraminide alpha-2,8-sialyltransferase 4)",3,109,80.6,inactive
Rtl5 (retrotransposon Gag like 5),1,81.9,74.9,inactive
Rtl5 (retrotransposon Gag like 5),2,116,113,inactive
Rtl5 (retrotransposon Gag like 5),3,85.5,107,inactive
Slc22a1,1,74.3,84.4,inactive
Slc22a1,2,104,83.9,inactive
Slc22a1,3,69.7,95.3,inactive
Dsc1 (desmocollin 1),1,78.4,63.8,inactive
Dsc1 (desmocollin 1),2,64.2,84.6,inactive
Dsc1 (desmocollin 1),3,50.7,52.1,inactive
"Wasf2 (WASP family, member 2)",1,72,98.3,inactive
"Wasf2 (WASP family, member 2)",2,55.3,45.1,inactive
"Wasf2 (WASP family, member 2)",3,119,73.2,inactive
Enpep (glutamyl aminopeptidase),1,71.2,64.9,inactive
Enpep (glutamyl aminopeptidase),2,86.4,49.5,inactive
Enpep (glutamyl aminopeptidase),3,54,48.9,inactive
"Zzz3 (zinc finger, ZZ domain containing 3)",1,111,69.2,inactive
"Zzz3 (zinc finger, ZZ domain containing 3)",2,89.3,61,inactive
"Zzz3 (zinc finger, ZZ domain containing 3)",3,92.4,97.2,inactive
Pafah1b3,1,97.1,88.7,inactive
Pafah1b3,2,113,105,inactive
Pafah1b3,3,137,73.1,active
Galnt15 (polypeptide N-acetylgalactosaminyltransferase 15),1,173,125,active
Galnt15 (polypeptide N-acetylgalactosaminyltransferase 15),2,74.2,99.9,inactive
Galnt15 (polypeptide N-acetylgalactosaminyltransferase 15),3,85.3,104,inactive
Galnt15 (polypeptide N-acetylgalactosaminyltransferase 15),4,96.4,87,inactive
Galnt15 (polypeptide N-acetylgalactosaminyltransferase 15),5,79.2,77.2,inactive
Galnt15 (polypeptide N-acetylgalactosaminyltransferase 15),6,76,87.5,inactive

An excerpt from the list above, as a working copy:
Gene,reagent,"GFP, % of control","viability (ATP), % of control",activity call
Dusp15 (dual specificity phosphatase-like 15),3,106,63.2,inactive
Tle3 (transducin-like enhancer of split 3),1,86.1,80.1,inactive
Tle3 (transducin-like enhancer of split 3),2,111,86.6,inactive
Tle3 (transducin-like enhancer of split 3),3,78.2,85.9,inactive
Ankrd42 (ankyrin repeat domain 42),1,177,93.4,active
Ankrd42 (ankyrin repeat domain 42),2,66.1,82.1,inactive
Ankrd42 (ankyrin repeat domain 42),3,131,140,active
Ripply3 (ripply transcriptional repressor 3),1,52.3,61.9,inactive
Ripply3 (ripply transcriptional repressor 3),2,74.8,80.5,inactive
Ripply3 (ripply transcriptional repressor 3),3,57.4,83.5,inactive
Sgcz (sarcoglycan zeta),1,70.9,88.6,inactive
